Measured values published in patent US20160279215A1, “NOVEL PEPTIDES AND COMBINATION OF PEPTIDES FOR USE IN IMMUNOTHERAPY AGAINST VARIOUS TUMORS” (immatics biotechnologies GmbH, priority 2015, published 2016).

Legend:
Parameters in all cases: species or system human
[1] = Absolute quantitation of TUMAP copies per cell in tumor samples by nanoLC-MS/MS; settings: absolute peptide quantitation in tumor samples; median over samples
[2] = test system: source genes of the peptides (mRNA) in tumor and normal tissue; test: Expression profiling of source genes by RNAseq (target coverage); settings: share of tumors with more than 1.5-fold over-expression vs highest-expressing relevant normal tissue; for Target coverage for source genes, AML (%): acute myeloid leukemia; for Target coverage for source genes, BRCA (%): breast cancer; for Target coverage for source genes, CLL (%): chronic leukemia (CLL); for Target coverage for source genes, OSCAR (%): esophageal cancer incl. gastric-oesophageal junction; for Target coverage for source genes, GBC_CCC (%): gallbladder adenocarcinoma and cholangiocarcinoma; for Target coverage for source genes, MEL (%): melanoma; for Target coverage for source genes, NHL (%): non-Hodgkin lymphoma; for Target coverage for source genes, OC (%): ovarian cancer; for Target coverage for source genes, SCLC (%): small cell lung cancer; for Target coverage for source genes, UBC (%): urinary bladder cancer; for Target coverage for source genes, UTC (%): uterine cancer
[3] = Identification and label-free relative LC-MS quantitation of HLA-presented peptides on tumor and normal tissue samples (XPRESIDENT presentation profiles); settings: for Entities of particular interest: entities where the peptide was over-presented on cancer samples compared to normal tissues; for Additional entities of particular interest (presentation of selected peptides across entities): tumor entities on which the HLA-presented peptide was found, entity abbreviations defined in the title of Table 4B

| Substance | Copies per cell (median) [1] | Target coverage for source genes, AML (%) [2] | Target coverage for source genes, BRCA (%) [2] | Target coverage for source genes, CLL (%) [2] | Target coverage for source genes, OSCAR (%) [2] | Target coverage for source genes, GBC_CCC (%) [2] | Target coverage for source genes, MEL (%) [2] | Target coverage for source genes, NHL (%) [2] | Target coverage for source genes, OC (%) [2] | Target coverage for source genes, SCLC (%) [2] | Target coverage for source genes, UBC (%) [2] | Target coverage for source genes, UTC (%) [2] | Entities of particular interest [3] | Additional entities of particular interest (presentation of selected peptides across entities) [3] |
| --- | --- | --- | --- | --- | --- | --- | --- | --- | --- | --- | --- | --- | --- | --- |
| 14: peptide found in MMP1 (gene looked up) (YTFSGDVQL; listed as Homo sapiens) [compound 14] | ++ (>=100 = ++) | I (<19% over-expression = I) | I (<19% over-expression = I) | I (<19% over-expression = I) | IV (>70% = IV) | I (<19% over-expression = I) | II (20-49% = II) | I (<19% over-expression = I) | I (<19% over-expression = I) | I (<19% over-expression = I) | III (50-69% = III) | I (<19% over-expression = I) | GC, NSCLC, CRC, PC, OSCAR | SCLC, UBC, UTC, GBC_CCC, MEL |
| 24: peptide found in MMP13 (gene looked up) (KVWSDVTPL; listed as Homo sapiens) [compound 24] | + (<100 = +) | I (<19% over-expression = I) | IV (>70% = IV) | I (<19% over-expression = I) | IV (>70% = IV) | IV (>70% = IV) | II (20-49% = II) | I (<19% over-expression = I) |  | II (20-49% = II) | IV (>70% = IV) | IV (>70% = IV) | PC, NSCLC | BRCA |
| 155: peptide found in CYP4Z1 (gene looked up) (TLDSYLKAV; listed as Homo sapiens) [compound 155] | ++ (>=100 = ++) | I (<19% over-expression = I) | III (50-69% = III) | I (<19% over-expression = I) | I (<19% over-expression = I) | I (<19% over-expression = I) | I (<19% over-expression = I) | I (<19% over-expression = I) | I (<19% over-expression = I) | I (<19% over-expression = I) | I (<19% over-expression = I) | I (<19% over-expression = I) |  | OC, BRCA |
| 157 (ILQDGQFLV; listed as Homo sapiens) [compound 157] | ++ (>=100 = ++) |  |  |  |  |  |  |  |  |  |  |  |  | HCC, UBC |
| 245 (ALLEEEEGV; listed as Homo sapiens) [compound 245] | + (<100 = +) |  |  |  |  |  |  |  |  |  |  |  |  | NSCLC, UBC, GBC_CCC |
| 253 (KLLAVIHEL; listed as Homo sapiens) [compound 253] | +++ (>=1,000 +++) |  |  |  |  |  |  |  |  |  |  |  | NSCLC, RCC, CRC, PC, OSCAR, OC | UBC, BRCA, GBC_CCC, MEL, AML, NHL |
| 264: peptide found in ESR1 (gene looked up) (TLHDQVHLL; listed as Homo sapiens) [compound 264] | + (<100 = +) | I (<19% over-expression = I) | IV (>70% = IV) | I (<19% over-expression = I) | I (<19% over-expression = I) | I (<19% over-expression = I) | I (<19% over-expression = I) | I (<19% over-expression = I) | IV (>70% = IV) | I (<19% over-expression = I) | I (<19% over-expression = I) | IV (>70% = IV) | NSCLC, BPH, OC | UTC, BRCA, GBC_CCC, MEL |
| 274 (TLYNPERTITV; listed as Homo sapiens) [compound 274] | + (<100 = +) |  |  |  |  |  |  |  |  |  |  |  | NSCLC, PC, HCC |  |

For part of these data: For expression read-outs the peptide stands for its source gene, whose mRNA was measured; the gene is not named for every peptide.
